# Data taken from US10717757B2, “Ketolides having antibacterial activity” (BIOPHARMATI SA, priority 2016, dated 2020).
# Tests used:
# [1] = tested on: S. pneumoniae AUCC483, macrolide resistant & penicillin sensitive; assay: Minimum inhibitory concentration (MIC), broth microdilution, AUCC483; format: cell-based, Streptococcus pneumoniae
# Protocol: (§1) Example 17. Protocols for Determining Minimum Inhibitory Concentration (MIC) of Test Compounds Against Streptococcus Pneumoniae Strains
# (§2) The test strains are revived from frozen stock on blood agar plates and incubated at 35±2° C. for 18-20 hours in 5% CO2. Colonies are directly suspended from an overnight grown agar culture in CAMHB/saline and optical density adjusted to 0.5 McFarland turbidity standard (1-2×10^8 cfu/mL). Adjusted cultures are further diluted 1:100 using CAMHB such that after inoculation each well finally contains ˜5×10^5 cfu/mL. For broth dilution testing of Streptococcus species, CAMHB is supplemented with 2.5-5% v/v LHB. Colony counts of inoculum suspension is estimated by ten-fold serial dilutions and plating each dilution on agar plate. After incubation, the plates are observed for growth and microbial counts determined.
# (§3) Compounds are weighed and dissolved in water/DMSO/other solvent to yield 1 mg/mL stock solution. Serial two-fold dilutions of the test compounds and reference antibiotics are prepared. 50 μL of the diluted drug solutions are dispensed in wells of microtiter trays (96 well).
# (§4) To each of the wells of the microtiter tray, 50 μL of the diluted organism are inoculated to obtain a final inoculum density of ˜5×10^5 cfu/mL. […]
# (§5) After incubation period, growth of organism in the wells are detected by unaided eye facilitated by a viewing device. […]
# [2] = tested on: S. pneumoniae AUCC479, macrolide & penicillin sensitive; assay: Minimum inhibitory concentration (MIC), broth microdilution, AUCC479; format: cell-based, Streptococcus pneumoniae
# Protocol: Protocols for Determining Minimum Inhibitory Concentration (MIC) of Test Compounds Against Streptococcus Pneumoniae Strains
# as §2, §3, §4, §5
# [3] = tested on: S. pneumoniae AUCC489, macrolide & penicillin resistant; assay: Minimum inhibitory concentration (MIC), broth microdilution, AUCC489; format: cell-based, Streptococcus pneumoniae
# Protocol: as §1, §2, §3, §4, §5
# [4] = tested on: S. pneumoniae AUCC488, macrolide & penicillin resistant; assay: Minimum inhibitory concentration (MIC), broth microdilution, AUCC488; format: cell-based, Streptococcus pneumoniae
# Protocol: as §1, §2, §3, §4, §5
# [5] = tested on: S. pneumoniae ATCC 49619 (CLSI QC strain); assay: Minimum inhibitory concentration (MIC), broth microdilution, QC strain; format: cell-based; conditions: Streptococcus pneumoniae; ATCC49619 QC strain; MIC in duplicates; read-out: MIC Strep. Pneumoniae ATCC49619 QC strain
# Protocol: as §1, §2, §3, §4, §5
smiles,measurement,setting,value
"CCC[C@@H]1C[C@@H](C(=O)N[C@@H]([C@H]2O[C@H](SC)[C@H](O)[C@@H](O)[C@H]2O)[C@H](C)Cl)N(C)C1 [clindamycin, reference compound]","MIC Strep. Pneumoniae AUCC 483 penS, macR cMLS",[1],≥64 µg/mL
same,"MIC Strep. Pneumoniae AUCC 479 penS, macS",[2],0.015 to 0.03 µg/mL
same,"MIC Strep. Pneumoniae AUCC 489 penR, macR cMLS",[3],>64 µg/mL
same,"MIC Strep. Pneumoniae AUCC 488 penR, macR M or iMLS",[4],0.06 µg/mL
same,MIC,[5],0.06 µg/mL
